Data as given in article PMC7924233.
No constants are given. Whether binding was seen depends on the method and setting.

Key:
[1] = target: Deadhead (Dhd) from D. melanogaster (D. melanogaster) (UniProt P47938); assay: NMR 15N relaxation (T1, T2, correlation time); 15N-labelled protein in solution, 600 MHz, 298 K; correlation time from T1 and T2 compared with the molecular weight; both purified
[2] = target: thioredoxin T (TrxT) from D. melanogaster, full length (D. melanogaster) (UniProt Q8IFW4); assay: as above

B1: Deadhead (Dhd) from D. melanogaster (protein, UniProt P47938 1-107)
chain: MASVRTMNDYHKRIEAADDKLIVLDFYATWCGPCKEMESTVKSLARKYSSKAVVLKIDVDKFEELTERYKVRSMPTFVFLRQNRRLASFAGADEHKLTNMMAKLVKA
With B1 the binding [1] was “no binding”.

B2: thioredoxin T (TrxT) from D. melanogaster, full length (protein, UniProt Q8IFW4 1-157)
chain: MVYPVRNKDDLDQQLILAEDKLVVIDFYADWCGPCKIIAPKLDELAQQYSDRVVVLKVNVDENEDITVEYNVNSMPTFVFIKGGNVLELFVGCNSDKLAKLMEKHAGVYTDEAADVKAVHIDGECIVDLTAESSESDNDNNNVNEVSAHDENAVLEH
B2 was tested, and the binding [2] was “no binding”.
